In publication PMC9603796:
Results are given in words; binding and its absence hold for the method and conditions named. Binding seen in cells or lysates may run through a third protein. Some binding calls cover weakened binding; strength is not graded here. Sequences can lack the tags named with a protein.

By UniProt entry, the sequences of proteins in these tests, tags left out.
UniProt Q92769: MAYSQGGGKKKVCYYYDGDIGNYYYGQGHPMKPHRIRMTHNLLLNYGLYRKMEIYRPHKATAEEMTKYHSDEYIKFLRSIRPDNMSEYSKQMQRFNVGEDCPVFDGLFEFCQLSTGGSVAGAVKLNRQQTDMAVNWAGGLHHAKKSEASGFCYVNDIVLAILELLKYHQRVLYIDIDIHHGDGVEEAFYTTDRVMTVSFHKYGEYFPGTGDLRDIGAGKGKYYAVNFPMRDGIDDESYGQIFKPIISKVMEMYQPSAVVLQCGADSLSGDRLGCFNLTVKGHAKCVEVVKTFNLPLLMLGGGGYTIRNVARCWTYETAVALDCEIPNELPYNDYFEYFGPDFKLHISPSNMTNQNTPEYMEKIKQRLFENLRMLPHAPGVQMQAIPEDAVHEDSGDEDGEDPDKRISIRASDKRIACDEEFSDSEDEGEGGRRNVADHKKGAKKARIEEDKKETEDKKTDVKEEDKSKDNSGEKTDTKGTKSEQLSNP

What was measured:
FLAG-IRF3 = target: T1, FLAG-IRF3 (UniProt Q14653); assay: co-IP
T1 sequence: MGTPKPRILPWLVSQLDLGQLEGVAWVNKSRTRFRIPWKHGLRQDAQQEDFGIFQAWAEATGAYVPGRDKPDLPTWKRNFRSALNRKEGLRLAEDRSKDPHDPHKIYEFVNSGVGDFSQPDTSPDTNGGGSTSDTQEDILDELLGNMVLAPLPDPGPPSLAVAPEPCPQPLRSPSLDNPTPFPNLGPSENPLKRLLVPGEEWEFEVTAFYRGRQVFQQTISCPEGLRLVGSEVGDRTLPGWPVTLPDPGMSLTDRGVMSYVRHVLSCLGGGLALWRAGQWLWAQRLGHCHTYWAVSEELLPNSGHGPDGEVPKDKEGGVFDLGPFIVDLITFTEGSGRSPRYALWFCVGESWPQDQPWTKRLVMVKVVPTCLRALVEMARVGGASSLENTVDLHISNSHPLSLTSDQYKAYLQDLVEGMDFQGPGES

V5-IRF3 = target: T2, V5-IRF3 (UniProt Q14653); assay: co-IP
T2 sequence: T1 sequence

histone deacetylase 2 (HDAC2), endogenous (from UniProt Q92769 1-488)
binding (FLAG-IRF3): binds | binding (V5-IRF3): binds
